Laboratory results: the supplement of paper PMC10849652
Some of the results follow.

By UniProt entry, the sequences of proteins in these tests, tags left out. Where a name states a change or a piece, a line headed by the entry shows the natural chain unless it says otherwise.
UniProt Q9Y5V0: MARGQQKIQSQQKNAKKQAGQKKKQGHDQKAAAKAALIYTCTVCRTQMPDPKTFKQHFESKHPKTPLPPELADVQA

Target: ZNF706 (UniProt Q9Y5V0)
Test: log2 fold change, soluble protein after heating vs DMSO (PISA); higher = thermal stabilisation; K562 cells, 10 uM, 30 min; active = over 0.2 and 3.5 SD of the protein, either way, in both replicates (recomputed)
Method in brief: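 Values are thermal stability changes relative to control samples and are taken from duplicates. They are stated as log2 fold changes. Before quantification by TMTpro 16plex LC-MS/MS with equalised channel sums, K562 cells at 2×10^6 cells/mL were treated with 10 μM compound for 30 min, heated in aliquots for 3 min across 48°C-58°C, pooled, extracted in PBS with 0.5% NP-40 at 4°C, and centrifuged at 21,000xg for 90 min to give the soluble supernatant.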

log2 fold change, inactive:
CCCc1cc(C)[nH]c(=O)c1CNC(=O)c1cc(-c2ccnc(N3CCN(C)CC3)c2)cc2c1cnn2C(C)C -0.05
Cc1cccc(-c2[nH]c(C(C)(C)C)nc2-c2ccc3nccnc3c2)n1 -0.014
COc1cc2ncnc(Nc3ccc(F)c(Cl)c3)c2cc1OCCCN1CCOCC1 [gefitinib] 0.005
Cc1cc(Nc2cc(CN3CCOCC3)c3nc(C)c(Cc4ccc(Cl)cc4F)n3n2)n[nH]1 [gandotinib] -0.078
NC1(c2ccc(-c3nc4ccn5c(=O)[nH]nc5c4cc3-c3ccccc3)cc2)CCC1 0.073
O=C1NC(=O)/C(=C\c2ccc3nccnc3c2)S1 0.025
CCN(CCCOc1ccc2c(Nc3cc(CC(=O)Nc4cccc(F)c4)[nH]n3)ncnc2c1)CCOP(=O)(O)O [barasertib] 0.039
Cc1ncc(-c2ccnc(Nc3ccc(S(C)(=O)=O)cc3)n2)n1C(C)C -0.033
Cc1cccc(CC(=O)N2CCc3c2ccc(-c2cn(C)c4ncnc(N)c24)c3F)n1 0.081
COc1cccc2cc(-c3nc([C@H]4CC[C@H](C(=O)O)CC4)n4ncnc(N)c34)[nH]c12 0.021
Cc1ccc(NC(=O)c2ccc(CN3CC[C@H](N(C)C)C3)c(C(F)(F)F)c2)cc1Nc1nccc(-c2cncnc2)n1 [bafetinib] -0.08
CCn1cc(-c2ccnc3[nH]c(-c4cccc(CN(C)C)c4)cc23)c(-c2ccc(NC(=O)N(C)C)cc2)n1 0.023
CC(C)N(C[C@H]1O[C@@H](n2cnc3c(N)ncnc32)[C@H](O)[C@@H]1O)[C@H]1C[C@@H](CCc2nc3cc(C(C)(C)C)ccc3[nH]2)C1 [pinometostat] 0.017
CN1CCC(CNc2ccc3ncc(-c4cccc(OC(F)(F)F)c4)n3n2)CC1 0.047
C[C@@H](N)c1ccc(C(=O)Nc2ccnc3[nH]ccc23)cc1 -0.057
CC[C@H](C)n1cc(C)c2c(C(=O)NCc3c(C)cc(C)[nH]c3=O)cc(-c3ccc(N4CCNCC4)nc3)cc21 -0.039
COc1ccc(Cn2ccc3ccc(C(=O)NO)cc32)cc1 -0.052
CS(=O)(=O)N1CCN(Cc2cc3nc(-c4cccc5[nH]ncc45)nc(N4CCOCC4)c3s2)CC1 [pictilisib] -0.118
COc1cc(Nc2ncc3c(n2)-c2ccc(Cl)cc2C(c2c(F)cccc2OC)=NC3)ccc1C(=O)O [alisertib] 0.008
Cn1cc(-c2ccc3c(c2)CCN3C(=O)Cc2cccc(C(F)(F)F)c2)c2c(N)ncnc21 -0.01
O=C(CCCCCCC(=O)Nc1ccccc1)NO [vorinostat] 0.033
C[C@@H](Oc1cc(-c2cnn(C3CCNCC3)c2)cnc1N)c1c(Cl)ccc(F)c1Cl [crizotinib] 0.014
Cc1ccc(-n2nc(C(C)(C)C)cc2NC(=O)Nc2ccc(OCCN3CCOCC3)c3ccccc23)cc1 [doramapimod] -0.007
Cc1cn(-c2cc(NC(=O)c3ccc(C)c(Nc4nccc(-c5cccnc5)n4)c3)cc(C(F)(F)F)c2)cn1 [nilotinib] 0.008
O=C(O)c1ccc2c(c1)nc(Nc1cccc(Cl)c1)c1ccncc12 [silmitasertib] -0.012
C=CC(=O)N1CCC[C@@H](n2nc(-c3ccc(Oc4ccccc4)cc3)c3c(N)ncnc32)C1 [ibrutinib] 0.006
O=C(Nc1nc2ccccc2n1CCN1CCOCC1)c1cccc([N+](=O)[O-])c1 [IRAK-1-4 Inhibitor I] 0.035
Cc1nc(Nc2n[nH]c3c2CN(C(=O)N[C@H](CN(C)C)c2ccccc2)C3(C)C)c2sccc2n1 -0.014
CO[C@H]1C[C@@H]2CC[C@@H](C)[C@@](O)(O2)C(=O)C(=O)N2CCCC[C@H]2C(=O)O[C@H]([C@H](C)C[C@@H]2CC[C@H](n3cnnn3)[C@H](OC)C2)CC(=O)[C@H](C)/C=C(\C)[C@@H](O)[C@@H](OC)C(=O)[C@H](C)C[C@H](C)/C=C/C=C/C=C/1C [zotarolimus] 0.01
FC(F)(F)c1ccc(/C=C/c2nc(COc3ccc(CCCCn4ccnn4)cc3)co2)cc1 [mubritinib] 0.017

Quoted from the entries so far (2 entries):
log2 fold change, inactive:
C=CC(=O)N1CCC[C@@H](n2nc(-c3ccc(Oc4ccccc4)cc3)c3c(N)ncnc32)C1 [ibrutinib] 0.006
O=C(Nc1nc2ccccc2n1CCN1CCOCC1)c1cccc([N+](=O)[O-])c1 [IRAK-1-4 Inhibitor I] 0.035
